± gives the standard deviation of the averaged measurements. The list shows a part of the results, in another mix than the full data.
Compound: Nc1ncnc2c1ncn2[C@@H]1O[C@H](COP(=O)(O)OP(=O)(O)NP(=O)(O)O)[C@@H](O)[C@H]1O [adenylyl imidodiphosphate]
Assay: NP40-soluble protein abundance relative to vehicle (solubility fold change) (ratio); higher = more soluble protein in presence of AMP-PNP
In short: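 In three independent experiments, Jurkat crude lysate made by Dounce homogenisation was treated for 10 min at room temperature and then 3 min at 37 °C with eight concentrations ranging from 0.1 to 10 mM. It was then solubilised with 0.8% NP40 plus benzonase for 60 min at 4 °C and ultracentrifuged. The supernatant was TMT-labelled for LC-MS/MS, and each value is the fold change against the detergent-processed vehicle for the same replicate, using vsn-normalised intensities.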

By UniProt entry, the sequences of proteins in these tests, tags left out. Where a name states a change or a piece, a line headed by the entry shows the natural chain unless it says otherwise.
UniProt Q9UG56: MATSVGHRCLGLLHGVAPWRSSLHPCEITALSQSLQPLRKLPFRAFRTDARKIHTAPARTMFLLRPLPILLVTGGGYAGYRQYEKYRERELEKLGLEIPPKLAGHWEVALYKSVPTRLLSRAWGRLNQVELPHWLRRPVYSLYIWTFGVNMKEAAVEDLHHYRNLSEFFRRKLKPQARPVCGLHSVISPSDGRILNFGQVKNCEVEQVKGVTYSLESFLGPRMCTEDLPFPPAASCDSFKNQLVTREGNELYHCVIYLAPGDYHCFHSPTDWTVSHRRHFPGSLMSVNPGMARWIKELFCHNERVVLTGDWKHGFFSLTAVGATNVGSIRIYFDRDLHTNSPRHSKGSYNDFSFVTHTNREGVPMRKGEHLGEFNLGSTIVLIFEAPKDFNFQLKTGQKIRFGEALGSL
UniProt Q9UKL0, whole entry: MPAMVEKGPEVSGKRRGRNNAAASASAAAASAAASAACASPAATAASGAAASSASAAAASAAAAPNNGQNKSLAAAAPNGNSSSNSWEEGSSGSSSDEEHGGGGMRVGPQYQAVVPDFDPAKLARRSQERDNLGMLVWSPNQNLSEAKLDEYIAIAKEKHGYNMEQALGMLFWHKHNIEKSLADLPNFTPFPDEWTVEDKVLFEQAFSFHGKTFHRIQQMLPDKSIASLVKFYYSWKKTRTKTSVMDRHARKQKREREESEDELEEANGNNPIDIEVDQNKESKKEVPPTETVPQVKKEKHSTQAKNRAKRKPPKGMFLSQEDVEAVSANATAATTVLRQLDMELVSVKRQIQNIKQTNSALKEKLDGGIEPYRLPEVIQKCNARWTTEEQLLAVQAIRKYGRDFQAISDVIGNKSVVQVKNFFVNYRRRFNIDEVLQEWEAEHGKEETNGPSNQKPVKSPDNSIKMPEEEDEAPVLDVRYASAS
UniProt O14734: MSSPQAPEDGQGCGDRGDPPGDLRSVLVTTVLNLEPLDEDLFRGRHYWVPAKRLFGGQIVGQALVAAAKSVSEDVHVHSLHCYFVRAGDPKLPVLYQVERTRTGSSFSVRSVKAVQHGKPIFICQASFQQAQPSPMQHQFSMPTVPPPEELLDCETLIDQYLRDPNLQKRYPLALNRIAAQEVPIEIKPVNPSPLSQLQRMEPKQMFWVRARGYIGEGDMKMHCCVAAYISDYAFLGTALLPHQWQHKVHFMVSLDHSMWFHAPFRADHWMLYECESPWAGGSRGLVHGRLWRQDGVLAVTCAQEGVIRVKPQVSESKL
UniProt Q9NRD1: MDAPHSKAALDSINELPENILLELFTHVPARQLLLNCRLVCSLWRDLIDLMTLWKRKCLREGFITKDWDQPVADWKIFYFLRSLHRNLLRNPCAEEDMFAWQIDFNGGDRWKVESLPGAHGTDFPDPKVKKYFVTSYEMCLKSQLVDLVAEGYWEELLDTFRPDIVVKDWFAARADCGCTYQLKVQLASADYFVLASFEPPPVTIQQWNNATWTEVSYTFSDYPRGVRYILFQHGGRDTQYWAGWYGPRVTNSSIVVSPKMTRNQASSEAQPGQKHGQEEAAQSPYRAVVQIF
UniProt O43716: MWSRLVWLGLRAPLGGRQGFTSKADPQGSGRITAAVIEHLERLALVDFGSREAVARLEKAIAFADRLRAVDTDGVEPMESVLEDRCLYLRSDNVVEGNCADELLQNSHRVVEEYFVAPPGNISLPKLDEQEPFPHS
UniProt Q8NBJ7: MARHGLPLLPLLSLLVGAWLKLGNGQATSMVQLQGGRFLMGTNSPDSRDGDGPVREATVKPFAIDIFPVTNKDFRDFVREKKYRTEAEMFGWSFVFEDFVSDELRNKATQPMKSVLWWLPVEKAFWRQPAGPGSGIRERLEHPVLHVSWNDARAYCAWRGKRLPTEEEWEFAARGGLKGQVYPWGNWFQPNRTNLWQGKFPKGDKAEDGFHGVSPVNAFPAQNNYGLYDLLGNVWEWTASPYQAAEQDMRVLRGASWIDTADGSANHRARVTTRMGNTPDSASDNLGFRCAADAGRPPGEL
UniProt Q9NVS9: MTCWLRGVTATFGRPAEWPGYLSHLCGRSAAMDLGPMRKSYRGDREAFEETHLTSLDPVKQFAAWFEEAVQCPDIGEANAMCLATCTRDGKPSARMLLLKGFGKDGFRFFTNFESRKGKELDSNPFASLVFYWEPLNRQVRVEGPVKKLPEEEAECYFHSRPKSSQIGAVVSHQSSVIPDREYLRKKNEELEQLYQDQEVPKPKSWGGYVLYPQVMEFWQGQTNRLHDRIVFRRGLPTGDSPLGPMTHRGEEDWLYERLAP
UniProt Q8TDP1: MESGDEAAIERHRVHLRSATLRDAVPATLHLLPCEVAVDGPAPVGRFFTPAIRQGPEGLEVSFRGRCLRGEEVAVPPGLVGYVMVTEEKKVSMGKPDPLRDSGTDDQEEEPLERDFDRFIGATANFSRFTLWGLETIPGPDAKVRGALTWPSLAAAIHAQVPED
UniProt P19105: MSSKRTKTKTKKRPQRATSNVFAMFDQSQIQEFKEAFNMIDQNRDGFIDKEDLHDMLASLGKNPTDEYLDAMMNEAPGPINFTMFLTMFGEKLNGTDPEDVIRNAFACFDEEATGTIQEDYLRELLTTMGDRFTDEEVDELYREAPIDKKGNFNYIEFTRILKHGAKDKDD
UniProt P27708: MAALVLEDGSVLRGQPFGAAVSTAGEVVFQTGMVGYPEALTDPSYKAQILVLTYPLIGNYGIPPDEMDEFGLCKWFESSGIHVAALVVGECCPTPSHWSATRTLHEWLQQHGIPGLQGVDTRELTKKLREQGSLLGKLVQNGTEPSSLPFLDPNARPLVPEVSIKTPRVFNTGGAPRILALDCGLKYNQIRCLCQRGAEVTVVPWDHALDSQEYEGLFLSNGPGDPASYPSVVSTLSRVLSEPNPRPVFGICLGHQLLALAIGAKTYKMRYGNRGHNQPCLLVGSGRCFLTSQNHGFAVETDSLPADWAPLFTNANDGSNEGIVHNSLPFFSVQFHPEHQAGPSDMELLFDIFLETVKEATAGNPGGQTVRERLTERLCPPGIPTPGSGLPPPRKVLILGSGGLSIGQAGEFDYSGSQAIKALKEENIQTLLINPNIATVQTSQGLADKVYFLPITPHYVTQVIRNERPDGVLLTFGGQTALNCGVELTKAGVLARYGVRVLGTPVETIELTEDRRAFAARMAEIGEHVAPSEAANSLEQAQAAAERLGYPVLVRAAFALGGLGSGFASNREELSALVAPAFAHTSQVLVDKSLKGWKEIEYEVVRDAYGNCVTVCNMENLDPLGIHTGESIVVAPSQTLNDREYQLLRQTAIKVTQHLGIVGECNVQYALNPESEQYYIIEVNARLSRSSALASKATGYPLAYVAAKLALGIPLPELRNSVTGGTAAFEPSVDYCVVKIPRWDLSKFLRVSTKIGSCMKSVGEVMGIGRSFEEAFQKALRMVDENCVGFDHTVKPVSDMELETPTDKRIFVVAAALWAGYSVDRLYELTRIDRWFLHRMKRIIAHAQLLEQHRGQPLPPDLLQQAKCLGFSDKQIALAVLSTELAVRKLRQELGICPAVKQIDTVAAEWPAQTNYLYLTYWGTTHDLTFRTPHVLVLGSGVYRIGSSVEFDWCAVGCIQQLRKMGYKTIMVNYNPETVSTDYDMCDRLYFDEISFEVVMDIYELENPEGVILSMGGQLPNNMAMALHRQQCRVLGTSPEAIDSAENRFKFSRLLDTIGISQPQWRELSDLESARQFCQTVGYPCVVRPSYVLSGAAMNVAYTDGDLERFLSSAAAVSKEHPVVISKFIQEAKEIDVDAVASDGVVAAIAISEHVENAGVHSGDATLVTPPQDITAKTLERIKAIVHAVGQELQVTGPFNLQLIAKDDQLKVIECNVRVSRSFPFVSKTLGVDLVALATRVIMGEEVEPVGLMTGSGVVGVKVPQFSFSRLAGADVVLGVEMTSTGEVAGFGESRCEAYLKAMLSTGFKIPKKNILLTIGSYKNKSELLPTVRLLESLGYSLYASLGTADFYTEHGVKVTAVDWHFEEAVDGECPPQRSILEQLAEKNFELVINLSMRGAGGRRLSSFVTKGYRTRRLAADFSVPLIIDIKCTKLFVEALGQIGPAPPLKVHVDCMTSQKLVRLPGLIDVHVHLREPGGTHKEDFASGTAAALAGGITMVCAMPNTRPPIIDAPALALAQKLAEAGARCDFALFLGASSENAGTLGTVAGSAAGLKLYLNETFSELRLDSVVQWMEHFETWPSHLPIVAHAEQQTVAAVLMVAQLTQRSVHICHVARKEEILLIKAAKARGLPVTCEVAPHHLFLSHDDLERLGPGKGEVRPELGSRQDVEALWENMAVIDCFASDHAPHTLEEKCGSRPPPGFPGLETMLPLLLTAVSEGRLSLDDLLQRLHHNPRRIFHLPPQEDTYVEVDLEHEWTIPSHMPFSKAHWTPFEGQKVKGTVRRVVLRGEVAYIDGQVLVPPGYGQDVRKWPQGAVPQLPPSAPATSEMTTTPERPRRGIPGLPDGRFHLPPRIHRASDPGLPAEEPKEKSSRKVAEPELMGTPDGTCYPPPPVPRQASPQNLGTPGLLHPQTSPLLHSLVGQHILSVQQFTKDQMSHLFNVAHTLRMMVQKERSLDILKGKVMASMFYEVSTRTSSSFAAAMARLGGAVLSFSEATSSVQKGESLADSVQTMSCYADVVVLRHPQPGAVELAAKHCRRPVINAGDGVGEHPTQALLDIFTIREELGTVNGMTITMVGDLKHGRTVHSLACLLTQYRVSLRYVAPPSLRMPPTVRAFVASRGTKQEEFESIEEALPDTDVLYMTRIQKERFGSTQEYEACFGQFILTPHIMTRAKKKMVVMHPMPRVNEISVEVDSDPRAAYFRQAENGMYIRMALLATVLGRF
UniProt Q15004: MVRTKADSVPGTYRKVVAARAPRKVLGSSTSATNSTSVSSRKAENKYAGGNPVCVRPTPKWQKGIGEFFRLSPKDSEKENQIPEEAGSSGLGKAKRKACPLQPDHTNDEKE
UniProt Q07955, whole entry: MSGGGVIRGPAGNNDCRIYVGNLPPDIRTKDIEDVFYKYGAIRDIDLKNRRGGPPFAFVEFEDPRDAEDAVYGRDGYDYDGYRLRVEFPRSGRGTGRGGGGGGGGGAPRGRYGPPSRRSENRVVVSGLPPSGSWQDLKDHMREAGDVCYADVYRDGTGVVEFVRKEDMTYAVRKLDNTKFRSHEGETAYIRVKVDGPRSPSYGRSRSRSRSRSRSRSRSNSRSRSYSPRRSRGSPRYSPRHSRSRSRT
UniProt Q9Y2L5: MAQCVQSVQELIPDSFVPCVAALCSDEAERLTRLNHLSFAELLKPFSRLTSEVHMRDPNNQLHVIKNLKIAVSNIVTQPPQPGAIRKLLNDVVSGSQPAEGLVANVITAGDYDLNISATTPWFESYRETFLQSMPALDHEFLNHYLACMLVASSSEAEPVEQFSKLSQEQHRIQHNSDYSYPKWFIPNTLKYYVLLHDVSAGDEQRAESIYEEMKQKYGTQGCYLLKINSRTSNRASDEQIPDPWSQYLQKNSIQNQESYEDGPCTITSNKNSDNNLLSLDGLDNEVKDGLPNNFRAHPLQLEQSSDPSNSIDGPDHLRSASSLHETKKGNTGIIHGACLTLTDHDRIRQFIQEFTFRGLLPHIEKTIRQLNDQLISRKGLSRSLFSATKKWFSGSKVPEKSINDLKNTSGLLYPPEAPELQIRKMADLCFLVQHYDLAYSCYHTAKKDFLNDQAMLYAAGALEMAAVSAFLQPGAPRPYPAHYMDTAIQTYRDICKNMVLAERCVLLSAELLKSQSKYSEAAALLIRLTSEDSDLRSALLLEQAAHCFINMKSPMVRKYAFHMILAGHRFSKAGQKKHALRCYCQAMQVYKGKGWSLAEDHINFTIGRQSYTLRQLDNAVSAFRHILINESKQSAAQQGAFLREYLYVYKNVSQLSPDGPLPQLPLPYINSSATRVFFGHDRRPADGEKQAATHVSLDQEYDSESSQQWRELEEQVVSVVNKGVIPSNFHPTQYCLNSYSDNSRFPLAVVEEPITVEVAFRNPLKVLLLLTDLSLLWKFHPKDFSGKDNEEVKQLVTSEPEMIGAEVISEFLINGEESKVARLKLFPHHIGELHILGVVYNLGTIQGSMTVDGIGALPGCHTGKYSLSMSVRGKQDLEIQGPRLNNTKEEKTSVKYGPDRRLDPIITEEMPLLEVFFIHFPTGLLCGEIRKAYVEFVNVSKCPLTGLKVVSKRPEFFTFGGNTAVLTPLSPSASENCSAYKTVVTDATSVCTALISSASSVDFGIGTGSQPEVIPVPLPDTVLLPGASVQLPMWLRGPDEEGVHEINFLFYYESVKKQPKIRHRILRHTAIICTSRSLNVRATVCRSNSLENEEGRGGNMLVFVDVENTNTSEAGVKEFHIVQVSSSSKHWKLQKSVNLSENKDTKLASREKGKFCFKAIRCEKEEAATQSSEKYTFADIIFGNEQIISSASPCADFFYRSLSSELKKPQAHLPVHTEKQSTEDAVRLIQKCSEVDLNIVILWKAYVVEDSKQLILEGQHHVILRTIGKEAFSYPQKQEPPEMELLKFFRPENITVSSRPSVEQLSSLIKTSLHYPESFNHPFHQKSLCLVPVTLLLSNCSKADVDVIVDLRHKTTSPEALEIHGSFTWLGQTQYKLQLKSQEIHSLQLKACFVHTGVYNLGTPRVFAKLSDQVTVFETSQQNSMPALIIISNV

Target | NP40-soluble protein abundance (concentration: 1mM) | NP40-soluble protein abundance (concentration: 2mM) | NP40-soluble protein abundance (concentration: 4mM) | NP40-soluble protein abundance (concentration: 6mM) | NP40-soluble protein abundance (concentration: 8mM) | NP40-soluble protein abundance (concentration: 10mM)
H0Y7P7 and related entries (UniProt Q9UG56) | 0.985 ± 0.023 | 0.961 ± 0.025 | 0.985 ± 0.056 | 0.986 ± 0.011 | 0.983 ± 0.025 | 1.01 ± 0.016
J3KN32 and related entries (UniProt Q9UKL0) | 1.01 ± 0.036 | 1.04 ± 0.076 | 1.03 ± 0.065 | 1.08 ± 0.021 | 1.07 ± 0.035 | 1.13 ± 0.11
H7C1N3 and related entries (UniProt O15155) | 0.965 ± 0.055 | 0.977 ± 0.036 | 0.951 ± 0.022 | 0.975 ± 0.036 | 0.995 ± 0.063 | 0.955 ± 0.053
H0Y860 and related entries (UniProt Q9P246) | 0.951 ± 0.013 | 1.04 ± 0.081 | 1.01 ± 0.034 | 0.961 ± 0.018 | 0.925 ± 0.02 | 0.931 ± 0.04
H3BNM4 and related entries (UniProt Q8NBZ0) | 1.02 ± 0.011 | 1.12 ± 0.053 | 0.986 ± 0.011 | 1.02 ± 0.015 | 0.9759 ± 0.0048 | 1.01 ± 0.038
H7C5A7 and related entries (UniProt O14734) | 0.962 ± 0.017 | 0.932 ± 0.036 | 0.956 ± 0.013 | 0.984 ± 0.061 | 0.97 ± 0.015 | 0.961 ± 0.02
J3KQ72 and related entries (UniProt Q9NRD1) | 0.96 ± 0.027 | 0.988 ± 0.052 | 0.9952 ± 0.0094 | 0.9848 ± 0.0095 | 0.9629 ± 0.0083 | 0.955 ± 0.028
H0YDM4 and related entries (UniProt Q86VS8) | 1 ± 0.018 | 1.04 ± 0.073 | 0.998 ± 0.042 | 0.941 ± 0.013 | 0.958 ± 0.0034 | 0.887 ± 0.043
H0YIV9 and related entries (UniProt O43716+H0YIV9) | 0.973 ± 0.038 | 1.02 ± 0.038 | 1.01 ± 0.03 | 0.988 ± 0.012 | 0.977 ± 0.015 | 0.962 ± 0.013
H7BY16 and related entries (UniProt P19338) | 1.01 ± 0.022 | 1.1 ± 0.073 | 1.04 ± 0.03 | 1.12 ± 0.052 | 1.06 ± 0.029 | 1.14 ± 0.065
J3KQJ1 and related entries (UniProt Q8NBJ7) | 1 ± 0.043 | 1 ± 0.029 | 1.02 ± 0.032 | 1.03 ± 0.05 | 1.02 ± 0.04 | 0.995 ± 0.018
J3KPS0 and related entries (UniProt Q9NXW2) | 1 ± 0.03 | 0.998 ± 0.036 | 0.978 ± 0.021 | 0.957 ± 0.012 | 0.941 ± 0.015 | 0.944 ± 0.021
I3L3K7 and related entries (UniProt Q12968) | 1.04 ± 0.021 | 1.02 ± 0.015 | 1.03 ± 0.024 | 0.996 ± 0.037 | 0.993 ± 0.037 | 1 ± 0.037
J3KNS1 and related entries (UniProt Q9UPW5) | 1.009 ± 0.01 | 1.01 ± 0.036 | 1.03 ± 0.019 | 1.01 ± 0.023 | 1.01 ± 0.027 | 1.032 ± 0.0054
I3L072 and related entries (UniProt Q9BSJ5) | 1.01 ± 0.034 | 1.02 ± 0.024 | 1.01 ± 0.011 | 1.03 ± 0.044 | 1.01 ± 0.012 | 0.998 ± 0.019
H0YGR4 and related entries (UniProt Q9Y3B8) | 0.94 ± 0.052 | 1.01 ± 0.016 | 0.897 ± 0.053 | 0.951 ± 0.024 | 0.911 ± 0.041 | 0.901 ± 0.069
H7C2Q8 and related entries (UniProt Q99848) | 0.976 ± 0.033 | 1 ± 0.046 | 0.988 ± 0.018 | 0.994 ± 0.042 | 0.951 ± 0.032 | 1.06 ± 0.027
J3KNN3 and related entries (UniProt P15735) | 1.02 ± 0.033 | 0.969 ± 0.092 | 1.01 ± 0.066 | 0.954 ± 0.064 | 0.974 ± 0.046 | 0.956 ± 0.072
H0Y8X4 and related entries (UniProt O43598) | 0.964 ± 0.042 | 0.992 ± 0.054 | 1.04 ± 0.042 | 1.07 ± 0.085 | 1.09 ± 0.043 | 1.11 ± 0.06
J3QQV6 and related entries (UniProt Q9NVS9) | 0.988 ± 0.05 | 0.999 ± 0.044 | 0.96 ± 0.03 | 0.953 ± 0.013 | 0.948 ± 0.039 | 0.9568 ± 0.0081
G3XAI9 and related entries (UniProt Q5BKY9) | 1.01 ± 0.018 | 1.1 ± 0.14 | 1 ± 0.043 | 1.1 ± 0.026 | 1.06 ± 0.037 | 1.09 ± 0.054
H0YEF3 and related entries (UniProt Q8TDP1) | 0.989 ± 0.021 | 0.962 ± 0.051 | 0.983 ± 0.015 | 1.01 ± 0.044 | 1.02 ± 0.04 | 0.971 ± 0.045
J3QRS3 and related entries (UniProt P19105+O14950+J3QRS3) | 1.07 ± 0.044 | 1.13 ± 0.059 | 1.03 ± 0.061 | 1.01 ± 0.044 | 0.965 ± 0.044 | 0.973 ± 0.027
H0YDK9 and related entries (UniProt Q5H9R7) | 0.954 ± 0.023 | 0.981 ± 0.042 | 0.949 ± 0.014 | 0.936 ± 0.018 | 0.896 ± 0.026 | 0.882 ± 0.02
H7BZB3 and related entries (UniProt P27708) | 0.938 ± 0.072 | 0.854 ± 0.16 | 0.883 ± 0.11 | 0.894 ± 0.092 | 0.886 ± 0.077 | 0.851 ± 0.12
H0YKX3 and related entries (UniProt Q15004) | 0.987 ± 0.021 | 0.984 ± 0.033 | 0.978 ± 0.018 | 0.981 ± 0.021 | 0.965 ± 0.0029 | 0.98 ± 0.019
J3KTL2 and related entries (UniProt Q07955) | 1.08 ± 0.063 | 1.15 ± 0.11 | 1.05 ± 0.072 | 1.03 ± 0.049 | 0.958 ± 0.049 | 1.08 ± 0.14
J3QQJ5 and related entries (UniProt Q9Y2L5) | 0.965 ± 0.013 | 0.907 ± 0.074 | 0.9455 ± 0.0081 | 0.9113 ± 0.0088 | 0.942 ± 0.058 | 0.886 ± 0.021
G3XA86 and related entries (UniProt Q9Y2Z9) | 0.997 ± 0.025 | 0.98 ± 0.028 | 0.987 ± 0.016 | 0.999 ± 0.022 | 1.01 ± 0.019 | 1.02 ± 0.034
H3BLZ8 (UniProt Q92841) | 1.03 ± 0.061 | 1.02 ± 0.06 | 0.983 ± 0.17 | 1 ± 0.13 | 1.04 ± 0.097 | 1.04 ± 0.08

Record cards, as listed above. Order of values: NP40-soluble protein abundance (concentration: 1mM)	NP40-soluble protein abundance (concentration: 2mM)	NP40-soluble protein abundance (concentration: 4mM)	NP40-soluble protein abundance (concentration: 6mM)	NP40-soluble protein abundance (concentration: 8mM)	NP40-soluble protein abundance (concentration: 10mM)
J3KQ72 and related entries (UniProt Q9NRD1) as listed: 0.96 ± 0.027	0.988 ± 0.052	0.9952 ± 0.0094	0.9848 ± 0.0095	0.9629 ± 0.0083	0.955 ± 0.028
H0Y860 and related entries (UniProt Q9P246) as listed: 0.951 ± 0.013	1.04 ± 0.081	1.01 ± 0.034	0.961 ± 0.018	0.925 ± 0.02	0.931 ± 0.04

Reference: the supplement of paper PMC6411743
